Data from paper PMC5358783, “Structural insights into the regulation of Bacillus subtilis SigW activity by anti-sigma RsiW” (PLoS ONE, 2017).
These are yes or no findings as the source states them, for the method shown. Some entries that bind do so weakly or less than the wild type.

Tests used:
[1] = target: T1, cytoplasmic domain of Bacillus subtilis anti-sigma RsiW (residues 1-80), oxidized, zinc-free (B. subtilis 168 strain) (UniProt Q45588); assay: crystal structure; micro-batch at 20 °C, 0.1 M HEPES pH 7.5, 17% PEG3350, 3% isopropanol, 0.1 M CaCl2; zinc-binding form refined at 2.8 Å, oxidized zinc-free form at 2.6 Å; MAD phasing with Se-Met complex, then molecular replacement; both purified
T1 sequence (chain, disulfide bond between C3 and C37): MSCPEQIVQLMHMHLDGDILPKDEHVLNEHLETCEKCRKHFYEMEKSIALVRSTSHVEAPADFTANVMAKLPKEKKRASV

[2] = target: T2, cytoplasmic domain of Bacillus subtilis anti-sigma RsiW (residues 1-80), reduced, zinc-bound (B. subtilis 168 strain) (UniProt Q45588); assay: as above
T2 sequence: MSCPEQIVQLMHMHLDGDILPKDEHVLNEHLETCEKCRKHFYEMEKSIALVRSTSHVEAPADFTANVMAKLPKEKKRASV

[3] = target: T1, cytoplasmic domain of Bacillus subtilis anti-sigma RsiW (residues 1-80), oxidized, zinc-free (B. subtilis 168 strain); assay: co-purification (IMAC + SEC); SigW co-expressed with Hisx6-thioredoxin-RsiWcyto in E. coli in minimal media without zinc; purified through the His tag of RsiWcyto and by SEC in buffer B (20 mM HEPES pH 7.5, 0.2 M NaCl, 5% glycerol) without reducing agent and zinc

Measured: binding

B1: Bacillus subtilis SigW (residues 1-187) (natural protein, B. subtilis 168 strain, UniProt Q45585 1-187, looked up)
chain: MEMMIKKRIKQVKKGDQDAFADIVDIYKDKIYQLCYRMLGNVHEAEDIAQEAFIRAYVNIDSFDINRKFSTWLYRIATNLTIDRIRKKKPDYYLDAEVAGTEGLTMYSQIVADGVLPEDAVVSLELSNTIQQKILKLPDKYRTVIVLKYIDELSLIEIGEILNIPVGTVKTRIHRGREALRKQLRDL
notes: SigW, ECF (group IV) sigma factor of Bacillus subtilis 168, residues 1-187; domains sigmaW2 (residues 3-95) and sigmaW4 (residues 125-187) joined by a disordered loop (96-125); No tag on SigW itself (cloned in MCS2 of pET-DUET1); it is purified through the His-tagged RsiWcyto; A selenomethionine-labelled complex (E. coli B834 (DE3)) was used for phasing only; also called sigma factor SigW; ECF …
binds: all assays above
